PubChem BioAssay AID1259425 – University of Nebraska Medical Center | 2018
Here is one part, drawn at random, of about 14,000 reagents. Some reagents were tested in more than one well and are listed for each. The record does not give: the time to read-out.

- Purpose: 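Find knockdowns that reproduce the gene expression pattern seen when KSR1 is lost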 (primary screen)
- Cells: HCT116 human colon cancer cells
- Reagent: siRNA pool against human genes, 50 nM siRNA
- Read-out: 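After 50 nM siRNA pool, branched-DNA assay measures six marker transcripts per well, minus blank, normalised to the geometric mean of two housekeeping transcripts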
- Reading the numbers: BNIP3L mRNA: higher = more BNIP3L transcript after knockdown; NDRG1 mRNA: higher = more NDRG1 transcript after knockdown; BNIP3 mRNA: higher = more BNIP3 transcript after knockdown; ALDOC mRNA: higher = more ALDOC transcript after knockdown; ACSL5 mRNA: higher = more ACSL5 transcript after knockdown

gene	BNIP3L mRNA, set 1	NDRG1 mRNA, set 1	BNIP3 mRNA, set 1	ALDOC mRNA, set 1	ACSL5 mRNA, set 1
XRN1 (5'-3' exoribonuclease 1)	0.234	0.106	0.32	0.0301	0.077
CCN1 (cellular communication network factor 1)	0.0513	0.845	0.623	0.0212	0.125
POLD3 (DNA polymerase delta 3, accessory subunit)	0.085	0.402	0.189	0.0352	0.0991
NRIP1 (nuclear receptor interacting protein 1)	0.128	0.118	0.333	0.00789	0.226
BACH2 (BACH transcriptional regulator 2)	0.178	0.149	0.385	0.0326	0.35
ACTL7B (actin like 7B)	0.0708	0.666	0.285	0.0203	0.379
TMEM255A (transmembrane protein 255A)	0.0813	0.23	0.335	0.0448	0.22
PGGT1B (protein geranylgeranyltransferase type I subunit beta)	0.0707	0.276	0.277	0.0482	0.171
TMEM11 (transmembrane protein 11)	0.141	0.285	0.188	0.0314	0.274
STAT1 (signal transducer and activator of transcription 1)	0.0732	0.097	0.283	0.0192	0.0782
POP4 (POP4 ribonuclease P/MRP subunit)	0.0633	0.181	0.255	0.0209	0.1
DTNA (dystrobrevin alpha)	0.0467	0.0659	0.418	0.0129	0.226
PTGES3 (prostaglandin E synthase 3)	0.0851	0.252	0.264	0.0217	0.158
OR1G1 (olfactory receptor family 1 subfamily G member 1)	0.126	0.485	0.401	0.0264	0.129
ACAT1 (acetyl-CoA acetyltransferase 1)	0.142	0.178	0.471	0.0181	0.228
RGS7 (regulator of G protein signaling 7)	0.226	0.393	0.75	0.0868	0.255
FOXI1 (forkhead box I1)	0.0811	0.0354	0.153	0.00261	0.126
RRAS2 (RAS related 2)	0.138	0.279	0.28	0.0299	0.14
SLURP1 (secreted LY6/PLAUR domain containing 1)	0.0751	0.341	0.215	0.0378	0.312
ETS1 (ETS proto-oncogene 1, transcription factor)	0.161	0.111	0.342	0.0192	0.171
TRPM5	0.0715	0.182	0.272	0.0108	0.142
SRSF10 (serine and arginine rich splicing factor 10)	0.0897	0.355	0.313	0.0122	0.095
TMEM204 (transmembrane protein 204)	0.195	0.197	0.387	0.028	0.255
LMO4 (LIM domain only 4)	0.0506	0.0636	0.211	0.00377	0.107
UBAP1 (ubiquitin associated protein 1)	0.0999	0.448	0.404	0.0225	0.232
SKIC3 (SKI3 subunit of superkiller complex)	0.191	0.0947	0.251	0.0287	0.0975
GPR39 (G protein-coupled receptor 39)	0.0898	0.142	0.368	0.154	0.0866
INO80D (INO80 complex subunit D)	0.0418	0.0741	0.182	0.0169	0.16
MGAT4B	0.127	0.332	0.12	0.00487	0.246
TPRA1 (transmembrane protein adipocyte associated 1)	0.15	0.097	0.307	0.0535	0.134
PHRF1 (PHD and ring finger domains 1)	0.0779	0.162	0.304	0.0278	0.179
ZNF224 (zinc finger protein 224)	0.116	0.108	0.294	0.0223	0.171
ZNF224 (zinc finger protein 224)	0.115	0.156	0.327	0.0171	0.144
CEP126 (centrosomal protein 126)	0.0785	0.11	0.257	0.019	0.12
MRPL50 (mitochondrial ribosomal protein L50)	0.105	0.134	0.181	0.0385	0.166
TIMELESS (timeless circadian regulator)	0.0899	0.0632	0.207	0.00823	0.223
KCNJ6 (potassium inwardly rectifying channel subfamily J member 6)	0.119	0.317	0.404	0.0274	0.14
IGF2 (insulin like growth factor 2)	0.0437	0.0833	0.288	0.0218	0.153
SRRM4 (serine/arginine repetitive matrix 4)	0.499	0.366	0.918	0.228	1.57
ICE2 (interactor of little elongation complex ELL subunit 2)	0.0912	0.102	0.281	0.0152	0.0932
FLII (FLII actin remodeling protein)	0.125	0.18	0.418	0.00983	0.106
C4orf17 (chromosome 4 open reading frame 17)	0.223	0.139	0.205	0.0807	0.294
SLC20A2	0.161	0.0818	0.399	0.0247	0.11
IL27RA (interleukin 27 receptor subunit alpha)	0.138	0.143	0.295	0.0154	0.228
ATF4 (activating transcription factor 4)	0.0481	0.261	0.323	0.0182	0.299
MAGEA4 (MAGE family member A4)	0.115	0.619	0.213	0.0208	0.271
GPN2 (GPN-loop GTPase 2)	0.186	0.179	0.102	0.0176	0.153
SHB (SH2 domain containing adaptor protein B)	0.0743	0.126	0.211	0.0313	0.165
APMAP (adipocyte plasma membrane associated protein)	0.175	0.0634	0.224	0.024	0.277
G0S2 (G0/G1 switch 2)	0.149	0.126	0.274	0.00958	0.196
SLC44A4	0.219	0.874	0.462	0.101	0.401
TWIST2 (twist family bHLH transcription factor 2)	0.0869	0.063	0.381	0.0402	0.201
TXNDC15 (thioredoxin domain containing 15)	0.174	0.192	0.391	0.0504	0.391
SMG8 (SMG8 nonsense mediated mRNA decay factor)	0.0779	0.248	0.211	0.0326	0.236
PCDHGA8 (protocadherin gamma subfamily A, 8)	0.0932	0.525	0.263	0.00158	0.331
ZFAND3 (zinc finger AN1-type containing 3)	0.113	0.362	0.224	0.0487	0.378
DAZL (deleted in azoospermia like)	0.0919	0.191	0.37	0.0521	0.139
ATRNL1 (attractin like 1)	0.147	0.17	0.589	0.0346	0.195
KAT8 (lysine acetyltransferase 8)	0.254	0.289	0.242	0.0773	0.374
SH3GL2 (SH3 domain containing GRB2 like 2, endophilin A1)	0.0904	0.115	0.221	0.0132	0.119
AURKAIP1 (aurora kinase A interacting protein 1)	0.109	0.159	0.252	0.0144	0.156
BBS4 (Bardet-Biedl syndrome 4)	0.0852	0.146	0.289	0.0312	0.173
USP9X (ubiquitin specific peptidase 9 X-linked)	0.0588	0.0803	0.218	0.0148	0.197
